From patent US20190241648A1 (STATEN BIOTECHNOLOGY B V, published 2019)
Results are given in words; binding and its absence hold for the method and conditions named. Some binding calls cover weakened binding; strength is not graded here. Each block holds one binder with its values, some of them ahead of it. Ends that are not written are not given here.

Chains of the proteins cited; added tags and fusions are not shown. Lines headed by an entry give the natural chain unless they say otherwise; changes in a name come on top.
UniProt P02656: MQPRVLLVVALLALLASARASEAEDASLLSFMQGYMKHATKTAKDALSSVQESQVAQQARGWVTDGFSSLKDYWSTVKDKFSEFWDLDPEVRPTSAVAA

Columns and labels:
[1] = target: T1, adjacent 10 aa and 13 aa cyclic ApoC3 peptides with the consensus motif … (human); test: cyclic ApoC3 peptide microarray, antibody at 0.2 µg/ml
T1 sequence (peptide, cyclic (thioether)): FSEFWDLDPE

[2] = target: T1, adjacent 10 aa and 13 aa cyclic ApoC3 peptides with the consensus motif … (human); test: cyclic ApoC3 peptide microarray, antibody at 0.2 µg/ml, fluorescent secondary antibody
[3] = target: human ApoC3 (huApoC3), native protein purified from human serum (human) (UniProt P02656); test: ELISA, huApoC3 coated directly, scFv periplasmic extract
[4] = target: T1, adjacent 10 aa and 13 aa cyclic ApoC3 peptides with the consensus motif … (human); test: cyclic ApoC3 peptide microarray, antibody at 1 µg/ml
[5] = target: T1, adjacent 10 aa and 13 aa cyclic ApoC3 peptides with the consensus motif … (human); test: cyclic ApoC3 peptide microarray, antibody at 1 µg/ml, fluorescent secondary antibody
[6] = target: T2, adjacent 13 aa cyclic ApoC3 peptides with the consensus motif … (human); test: cyclic ApoC3 peptide microarray, antibody at 1 µg/ml and 10 µg/ml
T2 sequence (peptide, cyclic (thioether)): GWVTDGFSSLK

[7] = target: T2, adjacent 13 aa cyclic ApoC3 peptides with the consensus motif … (human); test: cyclic ApoC3 peptide microarray, antibody at 1 and 10 µg/ml, fluorescent secondary antibody

B2: 8H4 scFv (scFv, V domains shown)
VH: ELQLVESGGGLVQPGRSLRLSCAASGFTFSSYSMRWVRQTPGKGLEWVTSINSDGGSTKYSDSVKGRFTISRDNAKNTLYLQMNNVKPEDTAIYYCAIQGYTDWGQGTQVTVSS
VL: DVVLTQTPGSLSVVPGESASISCKVSQSLVHSDGKTYLYWLLQKPGQSPQRLIYQVSNRDSGVPDRFTGSGSGTDFTLKISGVKAEDAGVYYCAQGTYNPYTFGSGTRLEIK
binding [3]: binds

B3: Llama antibody 5E5 (antibody, V domains shown)
VH: QLQLVESGGGLVQPGGSLRLSCAASGFTFGTYSMRWVRQVPRKALEWVSSISTDGGGTAYRDSVKGRFTISRDNAKNTLYLQMNNLKPEDTAIYYCVIAGYSDWGQGTQVTVSS
VL: ATMLTQSPGSLSVVPGESASISCKTSQGLVHSDGKTYFYWFLQKPGQSPQQLIYQVSNRASGVPDRFTGSGSGTDFTLKISGVKAEDAGVYYCAQGTYYPHTFGSGTRLEIK
notes: detected with goat anti-human IgG (Fc); also called mAb 5E5
binding [4]: binds | binding [5]: binds

B5: 5A4 scFv (scFv, V domains shown)
VH: QLQLVESGGGLVQPGGSLRLSCVASGFAFSHYTMYWVRQAPVRGLERVSAISGGGDRTIYTDSVKGRFTISRDNAANALYLQMNSLQPEDTAVYYCVAQGYEYWGQGTRVTVSS
VL: ATMLTQSPGSLSVVPGESASISCKAIQSLVHTDGKTYLYWFLQKPGQSPQRLIYQVSNRGSGVPDRFTGSGSGTDFTLKISGVKAEDAGVYYCAQGTYSSKTFGQGTKLEIK
binding [3]: binds

Next, values leading:

binding [1]: binds | binding [2]: binds
B1: Llama antibody 6A6 (antibody, V domains shown)
VH: EVQLVESGGGLVQPGGSLRLSCAASGFTFSSYAGRWVRQVPGKGLEWVSSINAGGGSTSYADSVKGRFTISRDNAKNTLYLQMNSLKPEDTAKYYCTQNSYRYWGQGTRVAVSS
VL: DVVLTQTPGSLSVVPGESASISCKASQSLIHTDGKTYLYWLLQKPGQRPQLLIYQVSSHESGVPDRFTGSGSGTDFTLKISGVKAEDAGVYYCAQATYNPRTFGQGTKLEIK

binding [6]: binds | binding [7]: binds
B4: Llama antibody 14C7 (antibody, V domains shown)
VH: QVQVQESGPGLVKPSQTLSLTCTVSGGSITTNSYYWSWIRQPPGKGLEWMGAIDYSGDTYYSPSLKSRTSISRDTSKNQFTLQLTSVTPEDTAVYYCVSRIPTGEYWGQGTQVTVSS
VL: QTVVTQEPSLSVSPGGTVTLTCGLNSGSVTSSNYPDWYQQTPGQAPRLLIYNTNSRHSGVPSRFSGSISGNKAALTITGAQPEDEADYYCALYMGSDSVVFGGGTHLTVL
